# ± gives the standard deviation of the averaged measurements. This data set is noisy: repeats of one test often differ as much as different tests do.
# The chains behind the UniProt entries cited, without tags or fusion partners. Where a name states a change or a piece, a line headed by the entry shows the natural chain unless it says otherwise.
# UniProt Q7Z7L8: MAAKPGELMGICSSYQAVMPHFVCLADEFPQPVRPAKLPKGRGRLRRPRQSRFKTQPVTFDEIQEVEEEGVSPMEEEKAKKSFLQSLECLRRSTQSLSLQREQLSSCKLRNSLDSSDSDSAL
# UniProt Q7Z309: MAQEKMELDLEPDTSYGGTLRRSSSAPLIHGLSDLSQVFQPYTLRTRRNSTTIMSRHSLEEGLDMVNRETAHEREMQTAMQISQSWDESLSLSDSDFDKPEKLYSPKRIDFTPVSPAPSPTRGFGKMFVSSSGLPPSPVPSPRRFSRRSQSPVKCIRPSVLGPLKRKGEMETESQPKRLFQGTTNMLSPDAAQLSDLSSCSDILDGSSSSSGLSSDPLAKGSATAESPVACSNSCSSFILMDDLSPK
# UniProt O00567: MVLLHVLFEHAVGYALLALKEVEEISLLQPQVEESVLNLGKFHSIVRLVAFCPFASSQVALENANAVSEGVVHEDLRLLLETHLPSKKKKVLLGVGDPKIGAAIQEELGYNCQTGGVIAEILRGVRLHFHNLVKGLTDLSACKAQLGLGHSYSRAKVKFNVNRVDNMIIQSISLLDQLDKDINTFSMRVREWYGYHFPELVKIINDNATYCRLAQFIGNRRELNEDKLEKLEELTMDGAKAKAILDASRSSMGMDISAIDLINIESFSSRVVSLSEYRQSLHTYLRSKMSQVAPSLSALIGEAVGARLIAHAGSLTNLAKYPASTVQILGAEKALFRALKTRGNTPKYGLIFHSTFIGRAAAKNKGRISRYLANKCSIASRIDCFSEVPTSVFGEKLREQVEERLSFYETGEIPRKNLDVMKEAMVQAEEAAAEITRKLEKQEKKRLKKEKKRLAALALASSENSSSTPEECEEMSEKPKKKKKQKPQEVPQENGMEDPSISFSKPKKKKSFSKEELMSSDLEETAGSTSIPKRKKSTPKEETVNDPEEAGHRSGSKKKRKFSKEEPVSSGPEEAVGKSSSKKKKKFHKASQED
# UniProt O94888: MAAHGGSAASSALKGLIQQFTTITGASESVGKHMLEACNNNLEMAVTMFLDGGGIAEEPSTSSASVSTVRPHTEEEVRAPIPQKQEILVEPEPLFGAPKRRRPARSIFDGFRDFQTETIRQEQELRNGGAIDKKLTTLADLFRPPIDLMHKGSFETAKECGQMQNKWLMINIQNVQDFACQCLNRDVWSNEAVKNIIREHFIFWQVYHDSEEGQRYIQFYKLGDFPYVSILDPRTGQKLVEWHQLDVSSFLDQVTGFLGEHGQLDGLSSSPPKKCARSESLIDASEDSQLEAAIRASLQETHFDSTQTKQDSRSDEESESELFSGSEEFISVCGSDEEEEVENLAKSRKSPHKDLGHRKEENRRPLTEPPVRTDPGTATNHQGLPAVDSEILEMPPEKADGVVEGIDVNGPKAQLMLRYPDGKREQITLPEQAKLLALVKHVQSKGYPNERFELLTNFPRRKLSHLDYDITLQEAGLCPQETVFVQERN
# UniProt Q96CW6: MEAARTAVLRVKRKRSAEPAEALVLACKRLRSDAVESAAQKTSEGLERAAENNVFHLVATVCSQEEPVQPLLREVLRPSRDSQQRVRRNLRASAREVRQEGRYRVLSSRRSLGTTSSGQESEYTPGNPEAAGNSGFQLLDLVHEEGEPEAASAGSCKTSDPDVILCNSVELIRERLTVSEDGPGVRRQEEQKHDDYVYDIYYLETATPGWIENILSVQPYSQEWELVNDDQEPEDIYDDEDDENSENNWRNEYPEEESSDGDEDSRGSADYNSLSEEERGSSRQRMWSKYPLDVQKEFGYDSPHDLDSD
# UniProt Q7Z4V5: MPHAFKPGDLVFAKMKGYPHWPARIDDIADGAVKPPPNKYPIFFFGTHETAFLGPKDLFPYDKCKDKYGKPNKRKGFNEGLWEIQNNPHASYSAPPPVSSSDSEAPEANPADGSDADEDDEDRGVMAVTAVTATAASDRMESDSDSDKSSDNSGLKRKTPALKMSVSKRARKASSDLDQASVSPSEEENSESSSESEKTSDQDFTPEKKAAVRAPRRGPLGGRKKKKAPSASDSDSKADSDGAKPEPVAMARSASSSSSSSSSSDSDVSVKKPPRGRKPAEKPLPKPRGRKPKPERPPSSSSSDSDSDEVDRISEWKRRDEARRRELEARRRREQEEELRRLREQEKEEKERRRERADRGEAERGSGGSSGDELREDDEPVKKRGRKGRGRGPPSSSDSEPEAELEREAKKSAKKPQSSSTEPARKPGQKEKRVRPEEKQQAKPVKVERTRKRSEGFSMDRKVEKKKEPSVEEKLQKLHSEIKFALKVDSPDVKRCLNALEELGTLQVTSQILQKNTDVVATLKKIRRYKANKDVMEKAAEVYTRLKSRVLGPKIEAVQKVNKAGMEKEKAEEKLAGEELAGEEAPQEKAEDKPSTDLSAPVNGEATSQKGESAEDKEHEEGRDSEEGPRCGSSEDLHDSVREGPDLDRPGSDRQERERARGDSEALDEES
# UniProt O60551: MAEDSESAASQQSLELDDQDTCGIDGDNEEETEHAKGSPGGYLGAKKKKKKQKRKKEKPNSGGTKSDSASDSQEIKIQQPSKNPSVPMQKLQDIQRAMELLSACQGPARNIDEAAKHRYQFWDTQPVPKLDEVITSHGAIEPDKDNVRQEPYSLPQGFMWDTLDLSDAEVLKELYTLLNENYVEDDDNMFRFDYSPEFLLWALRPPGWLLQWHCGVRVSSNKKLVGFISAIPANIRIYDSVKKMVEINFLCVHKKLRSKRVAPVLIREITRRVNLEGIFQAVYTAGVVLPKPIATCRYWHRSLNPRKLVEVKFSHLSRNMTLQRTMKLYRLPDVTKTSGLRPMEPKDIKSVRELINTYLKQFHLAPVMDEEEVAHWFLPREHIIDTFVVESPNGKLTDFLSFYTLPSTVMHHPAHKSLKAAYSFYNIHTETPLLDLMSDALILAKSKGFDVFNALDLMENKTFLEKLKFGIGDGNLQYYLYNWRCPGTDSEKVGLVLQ
# UniProt Q96GV9: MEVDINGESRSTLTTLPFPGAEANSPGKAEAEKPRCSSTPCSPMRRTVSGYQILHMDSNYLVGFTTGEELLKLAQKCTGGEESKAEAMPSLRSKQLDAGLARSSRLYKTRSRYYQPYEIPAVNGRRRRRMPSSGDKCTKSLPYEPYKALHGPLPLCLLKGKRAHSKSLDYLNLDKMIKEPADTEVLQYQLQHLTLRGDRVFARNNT
# UniProt Q9P260: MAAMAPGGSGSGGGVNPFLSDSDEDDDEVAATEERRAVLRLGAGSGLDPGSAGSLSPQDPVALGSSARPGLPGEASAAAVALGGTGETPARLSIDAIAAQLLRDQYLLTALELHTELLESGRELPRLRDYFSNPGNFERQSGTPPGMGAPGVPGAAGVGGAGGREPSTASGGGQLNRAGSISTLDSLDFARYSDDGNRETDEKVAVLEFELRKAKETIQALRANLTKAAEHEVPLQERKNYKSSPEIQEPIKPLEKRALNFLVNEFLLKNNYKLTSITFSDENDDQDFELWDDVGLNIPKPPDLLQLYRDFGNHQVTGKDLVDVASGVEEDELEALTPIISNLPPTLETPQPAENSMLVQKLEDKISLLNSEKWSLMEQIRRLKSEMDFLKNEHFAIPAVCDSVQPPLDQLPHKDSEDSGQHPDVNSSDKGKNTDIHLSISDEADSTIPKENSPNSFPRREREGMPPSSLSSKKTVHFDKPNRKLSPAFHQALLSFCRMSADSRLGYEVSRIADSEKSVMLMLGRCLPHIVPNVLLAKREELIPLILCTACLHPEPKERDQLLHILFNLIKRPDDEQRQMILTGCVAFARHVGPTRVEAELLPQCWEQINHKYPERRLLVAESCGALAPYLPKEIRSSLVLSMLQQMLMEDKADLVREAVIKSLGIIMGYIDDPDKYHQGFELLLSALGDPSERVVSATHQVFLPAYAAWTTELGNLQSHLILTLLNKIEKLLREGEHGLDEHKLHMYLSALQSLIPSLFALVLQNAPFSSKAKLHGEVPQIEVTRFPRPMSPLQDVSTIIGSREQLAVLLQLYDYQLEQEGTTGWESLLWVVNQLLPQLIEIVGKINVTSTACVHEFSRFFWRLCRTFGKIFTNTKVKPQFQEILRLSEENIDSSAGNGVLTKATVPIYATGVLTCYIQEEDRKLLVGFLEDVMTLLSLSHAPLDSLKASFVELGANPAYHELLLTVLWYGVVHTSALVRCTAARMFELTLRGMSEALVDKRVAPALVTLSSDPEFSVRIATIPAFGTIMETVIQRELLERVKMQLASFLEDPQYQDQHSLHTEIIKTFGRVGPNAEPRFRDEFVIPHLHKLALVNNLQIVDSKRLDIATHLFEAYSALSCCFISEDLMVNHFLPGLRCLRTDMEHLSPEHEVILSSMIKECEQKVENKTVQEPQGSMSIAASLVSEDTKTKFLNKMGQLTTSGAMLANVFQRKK
# UniProt Q7RTP6, whole entry, looked up: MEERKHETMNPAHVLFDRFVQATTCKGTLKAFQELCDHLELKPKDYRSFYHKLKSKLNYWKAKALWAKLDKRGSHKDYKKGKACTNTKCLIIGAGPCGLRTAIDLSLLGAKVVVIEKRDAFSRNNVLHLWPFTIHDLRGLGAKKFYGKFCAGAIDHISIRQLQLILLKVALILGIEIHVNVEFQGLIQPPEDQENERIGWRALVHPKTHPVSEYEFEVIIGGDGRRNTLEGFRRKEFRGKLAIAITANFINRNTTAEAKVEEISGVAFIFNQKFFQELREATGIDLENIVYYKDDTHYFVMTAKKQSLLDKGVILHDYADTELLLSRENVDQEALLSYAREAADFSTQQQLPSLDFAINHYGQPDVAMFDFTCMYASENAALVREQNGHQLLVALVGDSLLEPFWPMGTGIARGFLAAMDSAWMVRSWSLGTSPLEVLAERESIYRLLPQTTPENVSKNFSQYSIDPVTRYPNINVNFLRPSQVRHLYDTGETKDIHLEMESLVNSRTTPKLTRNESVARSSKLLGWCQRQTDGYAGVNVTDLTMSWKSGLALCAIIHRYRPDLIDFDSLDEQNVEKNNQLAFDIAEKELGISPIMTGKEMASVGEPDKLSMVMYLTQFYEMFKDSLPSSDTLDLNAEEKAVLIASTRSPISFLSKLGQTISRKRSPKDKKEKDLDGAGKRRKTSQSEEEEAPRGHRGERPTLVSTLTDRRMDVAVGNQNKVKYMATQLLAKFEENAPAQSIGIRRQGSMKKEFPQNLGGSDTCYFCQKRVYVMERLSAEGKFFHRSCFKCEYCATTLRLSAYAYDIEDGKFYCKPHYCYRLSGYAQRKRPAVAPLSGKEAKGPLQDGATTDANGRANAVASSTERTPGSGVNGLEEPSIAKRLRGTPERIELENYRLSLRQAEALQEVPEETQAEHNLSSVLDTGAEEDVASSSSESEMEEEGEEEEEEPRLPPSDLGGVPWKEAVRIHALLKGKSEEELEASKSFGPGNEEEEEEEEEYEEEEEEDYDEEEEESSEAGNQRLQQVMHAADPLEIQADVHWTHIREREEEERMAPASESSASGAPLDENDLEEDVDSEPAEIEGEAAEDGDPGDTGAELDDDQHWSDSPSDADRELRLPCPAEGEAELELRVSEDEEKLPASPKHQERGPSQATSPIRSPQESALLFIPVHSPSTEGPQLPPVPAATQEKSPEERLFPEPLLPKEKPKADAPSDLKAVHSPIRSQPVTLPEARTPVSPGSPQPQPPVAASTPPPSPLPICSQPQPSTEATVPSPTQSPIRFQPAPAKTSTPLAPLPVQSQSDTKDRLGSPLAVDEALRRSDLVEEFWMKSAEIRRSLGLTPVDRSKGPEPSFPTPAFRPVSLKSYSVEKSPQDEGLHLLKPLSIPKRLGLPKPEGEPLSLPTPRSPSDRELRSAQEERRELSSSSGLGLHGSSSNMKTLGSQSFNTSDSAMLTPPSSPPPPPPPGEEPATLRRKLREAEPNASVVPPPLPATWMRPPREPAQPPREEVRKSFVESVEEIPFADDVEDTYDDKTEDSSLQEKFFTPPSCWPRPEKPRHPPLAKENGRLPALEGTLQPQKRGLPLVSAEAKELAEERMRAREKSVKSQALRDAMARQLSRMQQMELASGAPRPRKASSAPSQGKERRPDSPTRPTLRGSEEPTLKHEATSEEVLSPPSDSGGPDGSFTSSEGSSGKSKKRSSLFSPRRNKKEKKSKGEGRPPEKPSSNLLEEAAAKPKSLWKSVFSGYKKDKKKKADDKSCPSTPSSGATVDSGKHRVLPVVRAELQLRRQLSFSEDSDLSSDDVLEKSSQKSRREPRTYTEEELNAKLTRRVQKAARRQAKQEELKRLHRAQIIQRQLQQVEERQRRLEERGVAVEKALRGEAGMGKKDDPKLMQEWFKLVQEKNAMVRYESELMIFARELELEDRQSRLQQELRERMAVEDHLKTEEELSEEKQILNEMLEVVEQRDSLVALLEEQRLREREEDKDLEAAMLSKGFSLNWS
# UniProt P83916, whole entry, looked up: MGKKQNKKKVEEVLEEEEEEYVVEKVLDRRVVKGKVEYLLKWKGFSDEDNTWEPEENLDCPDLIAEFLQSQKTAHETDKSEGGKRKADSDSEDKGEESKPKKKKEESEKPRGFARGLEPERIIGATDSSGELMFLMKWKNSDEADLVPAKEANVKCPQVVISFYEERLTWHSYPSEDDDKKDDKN
# Compound: CC[C@@H](C)Nc1cc(C(=O)N[C@H]2C[C@H]3CC[C@@H](C2)N3c2ccc(C(=O)C3CC3)cn2)c(C)cc1C(N)=O [XL888]
# Assay: phosphopeptide melting temperature shift (XL888 minus DMSO); higher = stabilised by drug treatment
# Conditions: 100 µM; treatment time 2 h; layout: intact cells; SK-Mel 24
# Method: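 Phospho-TPP in intact SK-Mel 24 cells treated with 100 uM XL888 or DMSO for 2 h, heated at 10 temperatures (37-67 C) for 3 min, soluble fraction TMT10plex-labelled and TiO2 phospho-enriched. Melting curves were fitted per phosphopeptide; the value is the melting point difference (drug minus vehicle) in each of two biological replicates.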
row,Target,phosphopeptide melting temperature shift [°C]
1,UniProt Q9Y4E1-6_phosphosite_539 (phosphosite position: 539),2.14
2,UniProt Q9BZQ8_phosphosite_646 (phosphosite position: 646),-1.78
3,C11orf96 phosphosite_399 (phosphosite position: 399) (UniProt Q7Z7L8),-0.182 ± 0.039
4,UniProt Q9P1Y6-2_phosphosite_915 (phosphosite position: 915),2.21
5,TERF2IP phosphosite_203 (phosphosite position: 203) (UniProt Q9NYB0),0.538
6,ACSS2 phosphosite_30 (phosphosite position: 30) (UniProt Q9NR19),-1.18
7,UniProt Q96I15-2_phosphosite_129 (phosphosite position: 129),1.73 ± 0.85
8,LARP1 phosphosite_774 (phosphosite position: 774) (UniProt Q6PKG0),1.88
9,FAM122B phosphosite_50 (phosphosite position: 50) (UniProt Q7Z309),1.91
10,UniProt Q9BY44-3_phosphosite_481 (phosphosite position: 481),0.339 ± 0.15
11,UniProt O00567_phosphosite_520 (phosphosite position: 520),0.242
12,UniProt Q05209-2_phosphosite_543 (phosphosite position: 543),-0.175
13,UBXN7 phosphosite_280 (phosphosite position: 280) (UniProt O94888),0.894 ± 0.36
14,UniProt P21359-2_phosphosite_2494 (phosphosite position: 2494),1.15
15,SLC7A6OS phosphosite_168 (phosphosite position: 168) (UniProt Q96CW6),1.69
16,UniProt Q7Z4V5_phosphosite_664 (phosphosite position: 664),1.09
17,NMT2 phosphosite_38 (phosphosite position: 38) (UniProt O60551),0.937
18,UniProt P21333-2_phosphosite_2150 (phosphosite position: 2150),0.534
19,C5orf30 phosphosite_25 (phosphosite position: 25) (UniProt Q96GV9),1.19
20,UniProt Q9UKM9-2_phosphosite_119 (phosphosite position: 119),2.63
21,RSL1D1 phosphosite_427 (phosphosite position: 427) (UniProt O76021),0.127 ± 0.59
22,UniProt Q86W92-3_phosphosite_387 (phosphosite position: 387),0.549
23,UniProt P16070-18_phosphosite_304 (phosphosite position: 304),2.12
24,UniProt Q9P260_phosphosite_180 (phosphosite position: 180),-0.485
25,UniProt Q9NYF8-3_phosphosite_529 (phosphosite position: 529),-1.76 ± 2.2
26,MICAL3 phosphosite_977 (phosphosite position: 977) (UniProt Q7RTP6),0.903
27,UniProt P18583-2_phosphosite_1378 (phosphosite position: 1378),8.42
28,UniProt P83916_phosphosite_91 (phosphosite position: 91),-0.471

# An excerpt of these results, tab-delimited.
row	Target	phosphopeptide melting temperature shift [°C]
11	UniProt O00567_phosphosite_520 (phosphosite position: 520)	0.242
17	NMT2 phosphosite_38 (phosphosite position: 38) (UniProt O60551)	0.937

# — the supplement of paper PMC5836539
